# Test results: US20170189504A1, “NOVEL PEPTIDES AND COMBINATION OF PEPTIDES FOR USE IN IMMUNOTHERAPY AGAINST VARIOUS CANCERS” (immatics biotechnologies GmbH, priority 2015, published 2017)
# How the values were obtained:
# [1] = tested on: HLA-A*02; experiment: Identification and relative LC-MS quantitation of HLA-A*02-presented tumor-associated peptides on tissue samples (presentation profiles, Tables 13A, 13B, 15, FIG. 1); design: species or system human; key to Presentation score NHL / Presentation score CLL / Presentation score BRCA / Presentation score AML / Presentation score GB / Presentation score NSCLC / Presentation score GBC_CCC / Presentation score UEC / Presentation score MEL / Presentation score OSCAR / Presentation score GC / Presentation score UBC / Presentation score OC / Presentation score RCC / Presentation score CRC / Presentation score PCA / Presentation score HCC / Presentation score PC / Presentation score SCLC: specifically presented on tumors (++++); very highly over-presented on tumors compared to a panel of normal tissues (+++); highly over-presented on tumors compared to a panel of normal tissues (++); over-presented on tumors compared to a panel of normal tissues (+); details: for Presentation score NSCLC: non-small cell lung cancer (N = 90) vs panel of normal tissues (N = 262); for Peptide Presentation on cancer entities: HLA-A*02-binding tumor-associated peptides
# [2] = tested on: source genes (mRNA); experiment: Gene and exon expression of source genes, TCGA tumor samples compared with normal tissue samples (Lonsdale, 2013) (Table 17); design: species or system human; details: for Target coverage: over-expression category of source gene, BLCA: Bladder urothelial carcinoma (N = 408); for Target coverage: over-expression category of source gene, BRCA: Breast cancer (N = 1104), cutoff more than 2-fold above highest 75% percentile of high and medium risk normal tissue samples; for Target coverage: over-expression category of source gene, ESCA: Esophageal cancer (N = 185); for Target coverage: over-expression category of source gene, GBM: Glioblastoma multiforme (N = 169); for Target coverage: over-expression category of source gene, LUAD: Lung adenocarcinoma (N = 517); for Target coverage: over-expression category of source gene, LUSC: Lung squamous cell carcinoma (N = 503); for Target coverage: over-expression category of source gene, OV: Ovarian serous cystadenocarcinoma (N = 309); for Target coverage: over-expression category of source gene, SKCM: Skin cutaneous melanoma (N = 473); for Target coverage: over-expression category of source gene, STAD: Stomach adenocarcinoma (N = 415)
# [3] = tested on: source genes (mRNA); experiment: Expression profiling of source genes by in-house RNASeq of tumor and normal tissues (Table 18, FIG. 2); design: species or system human; key: very highly over-expressed in tumors compared to a panel of normal tissues (+++); highly over-expressed in tumors compared to a panel of normal tissues (++); over-expressed in tumors compared to a panel of normal tissues (+); details: source gene of peptide; for Expression score BRCA: BRCA tumors vs panel of normal tissues; for Expression score OSCAR: esophageal cancer incl. gastric-esophageal junction (N = 11) vs panel of normal tissues; for Expression score GBC_CCC: gallbladder adenocarcinoma and cholangiocarcinoma (N = 3) vs panel of normal tissues; for Expression score NSCLC: non-small cell lung cancer (N = 11) vs panel of normal tissues; for Expression score PC: pancreatic cancer (N = 26) vs panel of normal tissues
# [4] = Table 13A, cancer entities on which the peptide was found presented
# [5] = Table 13B, presentation on additional cancer entities
# [6] = cutoff more than 2-fold above highest 75% percentile of normal tissue samples
substance,measurement,setting,value
14: peptide found in BRIP1 (gene looked up) (ILAKDLFEI; listed as Homo sapiens) [compound 14],Presentation score AML,"[1]; HLA-A*02 peptides, acute myeloid leukemia (N = 18) vs panel of normal tissues (N = 262)",++++
same,Presentation score OSCAR,"[1]; HLA-A*02 peptides, esophageal cancer, including cancer of the gastric-esophageal junction (N = 17) vs panel of normal tissues (N = 262)",++++
same,Presentation score HCC,"[1]; HLA-A*02 peptides, hepatocellular carcinoma (N = 16) vs panel of normal tissues (N = 262)",++++
same,Presentation score NHL,"[1]; HLA-A*02 peptides, non-Hodgkin lymphoma (N = 18) vs panel of normal tissues (N = 262)",++++
same,Presentation score NSCLC,[1]; HLA-A*02 peptides,++++
same,Presentation score UBC,"[1]; HLA-A*02 peptides, urinary bladder cancer (N = 16) vs panel of normal tissues (N = 262)",++++
same,Peptide Presentation on cancer entities,[1]; [4],"NSCLC, HCC, OSCAR, UBC, AML, NHL"
same,Peptide Presentation on cancer entities,[1]; [5],SCLC
same,"Target coverage: over-expression category of source gene, LAML","[2]; Acute Myeloid Leukemia (N = 173), cutoff more than 2-fold above highest 75% percentile of normal tissue samples",A (>=50% of tumors above the cutoff)
same,"Target coverage: over-expression category of source gene, BLCA",[2]; [6],"B (>= 20% of tumors above the cutoff, but <50%)"
same,"Target coverage: over-expression category of source gene, BRCA",[2],"B (>= 20% of tumors above the cutoff, but <50%)"
same,"Target coverage: over-expression category of source gene, READ","[2]; Colon and rectal adenocarcinoma (N = 167), cutoff more than 2-fold above highest 75% percentile of normal tissue samples","B (>= 20% of tumors above the cutoff, but <50%)"
same,"Target coverage: over-expression category of source gene, COAD","[2]; Colon and rectal adenocarcinoma (N = 462), cutoff more than 2-fold above highest 75% percentile of normal tissue samples","B (>= 20% of tumors above the cutoff, but <50%)"
same,"Target coverage: over-expression category of source gene, ESCA",[2]; [6],"B (>= 20% of tumors above the cutoff, but <50%)"
same,"Target coverage: over-expression category of source gene, GBM",[2]; [6],"C (>=5% of tumors above the cutoff, but <20%)"
same,"Target coverage: over-expression category of source gene, LIHC","[2]; Liver hepatocellular carcinoma (N = 374), cutoff more than 2-fold above highest 75% percentile of normal tissue samples","C (>=5% of tumors above the cutoff, but <20%)"
same,"Target coverage: over-expression category of source gene, LGG","[2]; Lower grade glioma (N = 534), cutoff more than 2-fold above highest 75% percentile of normal tissue samples","C (>=5% of tumors above the cutoff, but <20%)"
same,"Target coverage: over-expression category of source gene, LUAD",[2]; [6],"C (>=5% of tumors above the cutoff, but <20%)"
same,"Target coverage: over-expression category of source gene, LUSC",[2]; [6],"B (>= 20% of tumors above the cutoff, but <50%)"
same,"Target coverage: over-expression category of source gene, DLBC","[2]; Lymphoid neoplasm diffuse large B-cell lymphoma (N = 48), cutoff more than 2-fold above highest 75% percentile of normal tissue samples","C (>=5% of tumors above the cutoff, but <20%)"
same,"Target coverage: over-expression category of source gene, OV",[2]; [6],"C (>=5% of tumors above the cutoff, but <20%)"
same,"Target coverage: over-expression category of source gene, SKCM",[2]; [6],"B (>= 20% of tumors above the cutoff, but <50%)"
same,"Target coverage: over-expression category of source gene, STAD",[2]; [6],"C (>=5% of tumors above the cutoff, but <20%)"
same,"Target coverage: over-expression category of source gene, UCEC","[2]; Uterine corpus endometrial carcinoma (N = 546), cutoff more than 2-fold above highest 75% percentile of normal tissue samples","C (>=5% of tumors above the cutoff, but <20%)"
same,Expression score BRCA,[3],+++
same,Expression score AML,[3]; acute myeloid leukemia (N = 11) vs panel of normal tissues,+
same,Expression score CRC,[3]; colorectal cancer (N = 20) vs panel of normal tissues,++
same,Expression score OSCAR,[3],++
same,Expression score GBC_CCC,[3],+
same,Expression score GC,[3]; gastric cancer (N = 11) vs panel of normal tissues,+
same,Expression score GB,[3]; glioblastoma (N = 24) vs panel of normal tissues,++
same,Expression score HCC,[3]; hepatocellular carcinoma (N = 15) vs panel of normal tissues,+
same,Expression score NHL,[3]; non-Hodgkin lymphoma (N = 10) vs panel of normal tissues,++
same,Expression score NSCLC,[3],++
same,Expression score OC,[3]; ovarian cancer (N = 12) vs panel of normal tissues,+
same,Expression score PC,[3],+
same,Expression score SCLC,[3]; small cell lung cancer (N = 10) vs panel of normal tissues,+++
same,Expression score UBC,[3]; urinary bladder cancer (N = 10) vs panel of normal tissues,+
same,Expression score UEC,[3]; uterine cancer (N = 10) vs panel of normal tissues,+
15: peptide found in TLR6 (gene looked up) (YLDLSHNQL; listed as Homo sapiens) [compound 15],Presentation score BRCA,"[1]; HLA-A*02 peptides, breast cancer (N = 17) vs panel of normal tissues (N = 262)",++++
same,Presentation score CLL,"[1]; HLA-A*02 peptides, chronic lymphocytic leukemia (N = 17) vs panel of normal tissues (N = 262)",++++
same,Presentation score GBC_CCC,"[1]; HLA-A*02 peptides, gallbladder adenocarcinoma and cholangiocarcinoma (N = 6) vs panel of normal tissues (N = 262)",++++
same,Presentation score NSCLC,[1]; HLA-A*02 peptides,++++
same,Peptide Presentation on cancer entities,[1]; [4],"NSCLC, CLL, BRCA, GBC_CCC"
same,Peptide Presentation on cancer entities,[1]; [5],"OSCAR, GBC_CCC, HNSCC"
same,"Target coverage: over-expression category of source gene, BLCA",[2]; [6],"C (>=5% of tumors above the cutoff, but <20%)"
same,"Target coverage: over-expression category of source gene, BRCA",[2],"C (>=5% of tumors above the cutoff, but <20%)"
same,"Target coverage: over-expression category of source gene, ESCA",[2]; [6],"C (>=5% of tumors above the cutoff, but <20%)"
same,"Target coverage: over-expression category of source gene, GBM",[2]; [6],"C (>=5% of tumors above the cutoff, but <20%)"
same,"Target coverage: over-expression category of source gene, LUAD",[2]; [6],"C (>=5% of tumors above the cutoff, but <20%)"
same,"Target coverage: over-expression category of source gene, LUSC",[2]; [6],"C (>=5% of tumors above the cutoff, but <20%)"
same,"Target coverage: over-expression category of source gene, OV",[2]; [6],"B (>= 20% of tumors above the cutoff, but <50%)"
same,"Target coverage: over-expression category of source gene, PAAD","[2]; Pancreatic ductal adenocarcinoma (N = 179), cutoff more than 2-fold above highest 75% percentile of normal tissue samples","C (>=5% of tumors above the cutoff, but <20%)"
same,"Target coverage: over-expression category of source gene, SKCM",[2]; [6],"C (>=5% of tumors above the cutoff, but <20%)"
same,"Target coverage: over-expression category of source gene, STAD",[2]; [6],"C (>=5% of tumors above the cutoff, but <20%)"
same,Expression score BRCA,[3],+
same,Expression score CLL,[3]; chronic lymphocytic leukemia (N = 10) vs panel of normal tissues,+
same,Expression score OSCAR,[3],+
same,Expression score GBC_CCC,[3],+
same,Expression score NSCLC,[3],+
same,Expression score PC,[3],+

# For some of these results: Expression grades refer to the transcript from which the peptide derives; gene names, where given, were looked up from the sequence.
